Primary screen of a compound library

Each number is a percent effect as filed. The controls that fix the scale are not given in the record; negative values are as filed. Compounds were drawn at random from those tested, without regard to their results. Two or more numbers in one place are separate tests of the same structure; such repeats can differ widely.

Mtb glucose medium: 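Phenotypic screen: M. tuberculosis growth, glucose 7H9 medium, 3 days; the read-out is not stated. Concentration: 50 µM. Higher reads as more growth inhibition (inferred: compounds with an IC50 in retests scored well above the rest). Size under these conditions: about 69,000 compounds, about 760 of them at 50% or above in at least one test.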
Mtb cholesterol medium: 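Growth of Mycobacterium tuberculosis over 4 days (cholesterol / DPPC medium with tyloxapol); the read-out is not stated. Tested at 50 µM. Direction is inferred from retests: higher values go with more growth inhibition. About 69,000 compounds were tested under these conditions; 0.54% (about 370) showed 50% or more at least once.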

Compound,Mtb glucose medium,Mtb cholesterol medium
CCN(C(=O)NCCc1cccc(F)c1F)C(C)CS(C)(=O)=O (configuration not stated),27.93,-8.027
CC(CNC(=O)c1cnc[nH]1)Oc1ccc(Cl)cc1 (configuration not stated),-4.793,8.419
CC(=O)N1CCC[C@H]1C(=O)N(C)CCCOc1ccccc1,17.67,1.154
Cc1ccc(OCCCNC(=O)NC(C)c2nncn2C)cc1 (configuration not stated),13.59,-10.63
Cc1nc(C(=O)N(C)C)nn1-c1ccccc1C(C)C,18.15,23.97
O=C(O)C(F)(F)F.[H][C@@]12CN(Cc3ccoc3)CCO[C@]1([H])CN(S(=O)(=O)CCC)C2,6.794 and 0.673,-19.59
CC(C)c1nsc(N2CCC(OCCN3CCOCC3)CC2)n1,7.954,17.69
COc1cc(C)c2c(c1C)C[C@@H](C(C)C(=O)O)CC2 (some centres not stated),10.43 and 16.98,12.74
CC(C)NC(=O)N[C@H]1C[C@@H](c2nc(-c3ccncc3)no2)N(C)C1,-2.04 and -15.77,0.8433
CCCN(CCO)C(=O)C1CCC(=O)N(Cc2ccc(Cl)cc2)C1 (configuration not stated),17.74,-8.126 and -10.34
O=C1NCC2(CCCN(C(=O)c3ccc4c(c3)OCCO4)CC2)O1 (configuration not stated),23.98,-6.772
O=C(c1cccnc1)N1CCN(c2ccc(-n3cccc3)nn2)CC1,-28.24,1.03
O=C(O)C(F)(F)F.[H][C@@]12COC[C@@H](C(=O)NCc3ccco3)[C@]1([H])CN(c1ncc(F)cn1)C2,10.76 and 21.4,9.913
CC[C@H](Nc1nc(C(C)C)nc2c1cnn2C)c1ccccc1,20.6,6.462
CN(C)C(=O)C1CCCN1CCCNC(=O)Cc1ccccc1F (configuration not stated),9.382,-6.014
Cc1ncnc2c1CCN(S(=O)(=O)C1CC1)CC2,6.532,-8.281
COC(=O)c1ccc(C(=O)NCc2ccc(Br)cc2)cn1,97.67,93.55
O=S(=O)(NCc1cccnc1OC1CCCC1)N1CCCCC1,31.32,-10.01
[H][C@@]12CC(C)=CC[C@]1([H])CN(C(=O)c1ccc(-c3cc[nH]n3)cc1)C2,-10.4,-5.245
COCCN1CCC2(CC1)CC(NC(=O)COC)c1ccccc1O2.O=C(O)C(F)(F)F (configuration not stated),-14.1,-3.983
COC(=O)NCC(=O)N1CCC(c2cc3ccccc3[nH]2)CC1,18.08,9.737
CSc1ncccc1C(=O)NCCC(O)c1cc(C)oc1C (configuration not stated),18.95 and -4.452,15.17
CS(=O)(=O)c1ccccc1NC(=O)N[C@@H]1c2ccccc2C[C@@H]1O,-9.681 and -1.677,-6.777
CCC(=O)NCC(=O)Nc1c(C)cnn1Cc1cc(F)ccc1F,-4.186,6.423
Cc1cc2nc(SCC(=O)N3CCCC3)n(C(C)C)c(=O)c2[nH]1,-30.72 and -15.85,4.495
[H][C@]12CC[C@]([H])(CN(Cc3ccccn3)C1)N(C(=O)c1cc(C)nc(C)n1)C2,-5.403,-16.4
Cc1nc2ccccc2c(=O)n1Cc1nnnn1C1CC1,-14.25,-20.27
Cc1cc(C(=O)N2CCCC(c3nncn3C)C2)no1 (configuration not stated),-27.09,-31.35
CCOCC1CN(Cc2ccoc2)Cc2nn(C)cc21.O=C(O)C(F)(F)F (configuration not stated),28.93,14.18
CCN(CCc1nccs1)C(=O)c1ncoc1C,9.169,4.874
FC(F)Oc1ccc(CN2CCOC3(CCOCC3)C2)cc1Cl,-4.219,6.245
COc1cccc(OCCc2nnc(NC(C)=O)s2)c1,-0.5166,-1.689
O=C(NCc1ccncc1)c1ccc(Cl)cc1F,16.94,-8.374
CC(C)Oc1ncccc1CNC(=O)c1ccc(=O)[nH]n1,21.77,-1.859
CC(NC(=O)CCn1cccn1)c1ccc2c(c1)OCCO2 (configuration not stated),17.99,0.2957
COCCNC(=O)CCNc1ccc(Cl)cn1,-12.68,-10.35
CCOc1ccc(CCCC(=O)N2CCC(C(=O)NC)C2)cc1C (configuration not stated),-13.15,15.27
COCCN1CCCN(C(=O)NC(C)Cn2ccnc2)CC1 (configuration not stated),16.57,21.62
COCC(C)(C)NS(=O)(=O)C1CS(=O)(=O)c2ccccc21 (configuration not stated),6.285,12.96
CO[C@@H]1CO[C@@]2(CCCN(C(=O)N3CCCC3)C2)C1,1.338,21.76
Cc1nn(C)c(C)c1CN(C)C(=O)c1cccc(CCC(C)(C)O)c1,3.029,17.87 and -1.539
NC(=O)CN(Cc1ncc(-c2ccc(F)cc2)o1)C1CCCC1,-22.15,-8.39
CCn1cc(CN2CCCN(C(=O)c3sccc3OC)CC2)cn1,-41.88,-11.14
CS(=O)(=O)N[C@H]1CN(C(=O)CCc2ccco2)C[C@@H]1C1CC1,2.514,-3.216
CN(c1ncc(S(N)(=O)=O)s1)C1CCC1,-9.249 and -12.73,-19.87
Cc1ccc(NC2CCN(C(=O)CCc3ccco3)CC2)nn1,4.112,-13.61
CC(C)(C)c1cc(CN2CCOC(CN)C2)n[nH]1 (configuration not stated),-19.66,-29.65
O=C(NCC1CC1)c1cc2c(s1)CCN2c1ncccn1,30.99,16.21
O=C(c1cccc(S(=O)(=O)NCCc2nccs2)c1)N1CCOCC1,-12.45,18.74 and 15.34
[H][C@@]12CCN(c3ncccn3)[C@]1([H])CC[C@H](C(=O)NC)O2,-18.89 and -12.64,-3.247
CC(C)(O)CN1CCN(C(=O)c2cccn2Cc2ccccc2)CC1,-4.782,7.399
CCn1cc(CN2CCCN(C(=O)c3sc(C)nc3C)CC2)cn1,-4.289,-3.062
CCN(CC)CCNC(=O)c1ccn(COc2cc(C)cc(C)c2)n1,-1.379,-7.237
Cn1nnnc1SCCC(=O)NCC1Cc2ccccc2O1 (configuration not stated),-16.01,-24.48
c1cc(-c2nc(C3CCN(Cc4ccsc4)CC3)no2)ccn1,0.3675,-31.14
OC1(Cn2ccc3ncccc32)CCN(Cc2cccnc2)CC1,24.18,0.2141
O=C(NCCc1nc(C2CC2)no1)[C@H]1CNC[C@H](C(=O)N2CCCC2)C1,-5.331,-5.316
c1cnc(-c2nc(CNC3CCc4ncnn4C3)cs2)nc1 (configuration not stated),-2.099,-26.71
O=C(O)C(F)(F)F.c1cncc(-c2ccc3c(c2)C2(CC3)CCN(c3nncs3)CC2)c1,-0.8087,-14.45
Cc1cccc(CS(=O)(=O)CC(=O)NCCCOC(C)C)c1,-10.35,-9.72
CC(C(=O)N1CCc2sccc2C1)N1CCC(N2CCCC2)CC1 (configuration not stated),21.9,5.883
O=C(O)C(F)(F)F.[H][C@]12CCCN(Cc3ccc(C)s3)[C@@]1([H])CN(C(=O)c1ccco1)C2,8.222,-7.654
O=C(O)C(F)(F)F.O=C(O)C(F)(F)F.c1cncc(C2COC3(CCN(CC4CCOCC4)CC3)C2)c1 (configuration not stated),3.857,-16.45
CN(C)C(=O)N1CCN(Cc2noc(Cc3ccccc3)n2)CC1,2.543,-3.363
O=C(O)[C@@H]1CCN(C(=O)c2ccccn2)[C@@H]1c1ccc(F)cc1,-9.973,-19.74
CN(C)c1ccc(C(=O)N(Cc2ccncc2)CC2CCCO2)nn1 (configuration not stated),-17.71 and -2.007,-5.282
O=C(O)C(F)(F)F.O=C(O)C(F)(F)F.[H][C@@]12CC(=O)N(c3cccnc3)[C@@]1([H])CCN2c1ncc(CC)cn1,4.29 and 18.2,-13.02
COc1cccc(CC2CCCN2Cc2nccn2C)c1 (configuration not stated),5.27,0.6375
Cc1oc(-c2ccccc2)nc1C(=O)NC1=NCCS1,18.86 and 7.202,11.67
N#Cc1cnc2ccccc2c1N1CCN(C(=O)C2CCC2)CC1,11.73,-20.95

Repeated from the top, 5 entries:

| Compound | Mtb glucose medium | Mtb cholesterol medium |
|---|---|---|
| `CCN(C(=O)NCCc1cccc(F)c1F)C(C)CS(C)(=O)=O` (configuration not stated) | 27.93 | -8.027 |
| `CC(CNC(=O)c1cnc[nH]1)Oc1ccc(Cl)cc1` (configuration not stated) | -4.793 | 8.419 |
| `CC(=O)N1CCC[C@H]1C(=O)N(C)CCCOc1ccccc1` | 17.67 | 1.154 |
| `Cc1ccc(OCCCNC(=O)NC(C)c2nncn2C)cc1` (configuration not stated) | 13.59 | -10.63 |
| `Cc1nc(C(=O)N(C)C)nn1-c1ccccc1C(C)C` | 18.15 | 23.97 |

Source: ChEMBL document CHEMBL3988442, “University of Dundee, Small-Polar-MMV Screening Library” (2021).